According to patent publication US20040186089A1 (priority 2001, published 2004):
At least one structure is not confirmed: it was looked up by name or label, or the drawing left a doubt.

Key:
[1] = system: Bacillus anthracis ATCC 14578; format: cell-based
Bacillus thuringiensis = settings: cited from earlier work
Bacillus anthracis = settings: in vivo; cited from earlier work

| Structure (SMILES) | susceptibility of Bacillus anthracis [1] | resistance of Bacillus thuringiensis (Bacillus thuringiensis) | response of people (Bacillus anthracis) |
| --- | --- | --- | --- |
| C[C@@H](O)[C@H]1C(=O)N2C(C(=O)O)=C(SCCN=CN)C[C@H]12 [Imipenem, [5R-[5α,6α(R*)]]-6-(1-hydroxyethyl)-3-[[2-[(iminomethyl)amino]ethyl]thio]-7-oxo-1-azabicyclo[3.2.0]hept-2-ene-2-carboxylic acid monohydrate] | susceptible | not resistant |  |
| CN(C)[C@@H]1C(O)=C(C(N)=O)C(=O)[C@@]2(O)C(O)=C3C(=O)c4c(O)cccc4[C@@](C)(O)[C@H]3C[C@@H]12 [Tetracycline] |  | not resistant |  |
| C[C@H]1c2cccc(O)c2C(=O)C2=C(O)[C@]3(O)C(=O)C(C(N)=O)=C(O)[C@@H](N(C)C)[C@@H]3[C@@H](O)[C@@H]21 [doxycycline] |  |  | responded well |
